In the supplement of paper PMC10849652:
This is one part of the list.

Chains of the proteins cited; added tags and fusions are not shown. Lines headed by an entry give the natural chain unless they say otherwise; changes in a name come on top.
UniProt Q9BQD7: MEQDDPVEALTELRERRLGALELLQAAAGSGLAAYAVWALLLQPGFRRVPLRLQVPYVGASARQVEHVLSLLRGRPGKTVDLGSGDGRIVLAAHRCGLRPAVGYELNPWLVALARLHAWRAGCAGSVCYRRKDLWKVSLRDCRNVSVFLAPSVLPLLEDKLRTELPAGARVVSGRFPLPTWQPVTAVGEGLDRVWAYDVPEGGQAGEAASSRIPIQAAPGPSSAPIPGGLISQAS
UniProt Q6UXV4: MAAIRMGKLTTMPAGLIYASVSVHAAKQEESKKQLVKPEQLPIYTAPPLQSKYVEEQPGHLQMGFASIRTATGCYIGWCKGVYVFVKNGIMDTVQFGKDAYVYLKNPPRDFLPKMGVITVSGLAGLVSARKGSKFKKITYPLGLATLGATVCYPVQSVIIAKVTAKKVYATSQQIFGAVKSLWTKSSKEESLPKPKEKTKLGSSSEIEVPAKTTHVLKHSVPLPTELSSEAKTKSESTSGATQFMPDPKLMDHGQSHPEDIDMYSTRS
UniProt Q9NZN5: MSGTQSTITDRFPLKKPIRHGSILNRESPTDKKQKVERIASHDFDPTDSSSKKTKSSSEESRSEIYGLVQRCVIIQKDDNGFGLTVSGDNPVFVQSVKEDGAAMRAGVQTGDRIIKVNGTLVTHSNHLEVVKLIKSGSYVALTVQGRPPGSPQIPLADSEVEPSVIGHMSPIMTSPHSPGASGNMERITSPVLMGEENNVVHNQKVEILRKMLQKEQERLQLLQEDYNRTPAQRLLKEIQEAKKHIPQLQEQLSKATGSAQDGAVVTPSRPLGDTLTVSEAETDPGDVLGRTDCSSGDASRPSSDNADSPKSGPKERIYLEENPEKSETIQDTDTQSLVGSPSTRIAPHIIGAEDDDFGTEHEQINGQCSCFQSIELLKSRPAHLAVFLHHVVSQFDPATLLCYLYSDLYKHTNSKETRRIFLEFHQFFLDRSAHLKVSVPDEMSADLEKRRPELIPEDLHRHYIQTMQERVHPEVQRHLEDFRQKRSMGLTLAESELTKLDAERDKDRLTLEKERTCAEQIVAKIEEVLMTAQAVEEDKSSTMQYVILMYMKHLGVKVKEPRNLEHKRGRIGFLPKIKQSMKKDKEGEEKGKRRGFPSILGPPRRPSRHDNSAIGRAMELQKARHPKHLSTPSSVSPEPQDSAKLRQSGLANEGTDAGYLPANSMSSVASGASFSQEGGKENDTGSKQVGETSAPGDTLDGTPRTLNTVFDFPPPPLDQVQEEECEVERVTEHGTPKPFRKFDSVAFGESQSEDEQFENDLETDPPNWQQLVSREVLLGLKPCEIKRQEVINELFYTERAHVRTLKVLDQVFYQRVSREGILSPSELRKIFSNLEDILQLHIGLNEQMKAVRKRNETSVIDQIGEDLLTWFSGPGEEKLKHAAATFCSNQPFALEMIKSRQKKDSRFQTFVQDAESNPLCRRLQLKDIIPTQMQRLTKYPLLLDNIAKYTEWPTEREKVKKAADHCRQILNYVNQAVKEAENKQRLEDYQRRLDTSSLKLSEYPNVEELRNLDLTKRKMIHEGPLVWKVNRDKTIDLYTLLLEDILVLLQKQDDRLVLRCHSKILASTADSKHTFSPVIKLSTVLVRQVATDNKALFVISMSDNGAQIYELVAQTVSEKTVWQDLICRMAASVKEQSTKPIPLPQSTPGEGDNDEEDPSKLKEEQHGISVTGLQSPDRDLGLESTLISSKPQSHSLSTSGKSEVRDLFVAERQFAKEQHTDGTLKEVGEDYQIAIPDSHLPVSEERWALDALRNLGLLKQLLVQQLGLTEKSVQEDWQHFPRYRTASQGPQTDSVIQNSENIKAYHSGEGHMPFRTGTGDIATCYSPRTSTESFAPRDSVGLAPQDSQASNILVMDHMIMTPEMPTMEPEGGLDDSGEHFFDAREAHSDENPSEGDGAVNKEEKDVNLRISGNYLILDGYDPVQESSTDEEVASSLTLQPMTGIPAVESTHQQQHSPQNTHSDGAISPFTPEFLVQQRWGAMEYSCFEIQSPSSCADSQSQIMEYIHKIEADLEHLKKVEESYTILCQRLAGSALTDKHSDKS
UniProt Q96P48: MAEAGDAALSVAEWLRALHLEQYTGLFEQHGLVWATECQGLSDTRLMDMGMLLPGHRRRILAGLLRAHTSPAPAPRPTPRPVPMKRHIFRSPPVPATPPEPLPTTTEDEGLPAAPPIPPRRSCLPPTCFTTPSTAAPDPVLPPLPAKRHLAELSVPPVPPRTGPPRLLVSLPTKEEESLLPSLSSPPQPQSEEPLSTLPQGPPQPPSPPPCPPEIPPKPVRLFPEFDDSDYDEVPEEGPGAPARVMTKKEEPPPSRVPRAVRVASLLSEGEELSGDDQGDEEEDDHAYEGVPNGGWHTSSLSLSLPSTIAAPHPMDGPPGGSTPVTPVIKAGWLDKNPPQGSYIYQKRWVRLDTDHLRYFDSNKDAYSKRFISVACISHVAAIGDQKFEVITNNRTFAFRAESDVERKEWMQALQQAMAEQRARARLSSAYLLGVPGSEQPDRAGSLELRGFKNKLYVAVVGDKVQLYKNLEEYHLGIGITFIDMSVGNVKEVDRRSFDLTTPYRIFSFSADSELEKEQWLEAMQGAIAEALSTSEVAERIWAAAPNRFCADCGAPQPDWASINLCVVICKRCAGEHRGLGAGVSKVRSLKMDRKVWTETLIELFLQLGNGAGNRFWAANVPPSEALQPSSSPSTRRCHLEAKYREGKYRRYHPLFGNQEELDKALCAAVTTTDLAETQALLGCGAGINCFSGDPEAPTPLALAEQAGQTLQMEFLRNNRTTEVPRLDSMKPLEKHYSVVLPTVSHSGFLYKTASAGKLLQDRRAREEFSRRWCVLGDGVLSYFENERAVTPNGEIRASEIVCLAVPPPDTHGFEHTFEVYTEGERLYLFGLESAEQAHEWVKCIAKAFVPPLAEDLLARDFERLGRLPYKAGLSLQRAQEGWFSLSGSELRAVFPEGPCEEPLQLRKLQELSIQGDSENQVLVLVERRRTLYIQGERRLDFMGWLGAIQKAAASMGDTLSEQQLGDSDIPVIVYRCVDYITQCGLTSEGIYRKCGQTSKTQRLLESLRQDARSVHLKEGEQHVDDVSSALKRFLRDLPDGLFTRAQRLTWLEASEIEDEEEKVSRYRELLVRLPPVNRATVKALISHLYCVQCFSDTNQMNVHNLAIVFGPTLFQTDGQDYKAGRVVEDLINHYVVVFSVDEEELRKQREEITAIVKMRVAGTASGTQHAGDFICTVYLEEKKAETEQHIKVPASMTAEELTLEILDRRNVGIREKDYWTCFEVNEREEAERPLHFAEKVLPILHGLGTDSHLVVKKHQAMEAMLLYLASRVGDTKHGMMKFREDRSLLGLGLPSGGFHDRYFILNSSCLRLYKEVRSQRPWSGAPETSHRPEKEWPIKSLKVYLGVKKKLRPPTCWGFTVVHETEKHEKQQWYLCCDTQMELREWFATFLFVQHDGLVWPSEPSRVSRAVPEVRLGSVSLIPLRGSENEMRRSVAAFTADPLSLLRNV
UniProt Q9NP61: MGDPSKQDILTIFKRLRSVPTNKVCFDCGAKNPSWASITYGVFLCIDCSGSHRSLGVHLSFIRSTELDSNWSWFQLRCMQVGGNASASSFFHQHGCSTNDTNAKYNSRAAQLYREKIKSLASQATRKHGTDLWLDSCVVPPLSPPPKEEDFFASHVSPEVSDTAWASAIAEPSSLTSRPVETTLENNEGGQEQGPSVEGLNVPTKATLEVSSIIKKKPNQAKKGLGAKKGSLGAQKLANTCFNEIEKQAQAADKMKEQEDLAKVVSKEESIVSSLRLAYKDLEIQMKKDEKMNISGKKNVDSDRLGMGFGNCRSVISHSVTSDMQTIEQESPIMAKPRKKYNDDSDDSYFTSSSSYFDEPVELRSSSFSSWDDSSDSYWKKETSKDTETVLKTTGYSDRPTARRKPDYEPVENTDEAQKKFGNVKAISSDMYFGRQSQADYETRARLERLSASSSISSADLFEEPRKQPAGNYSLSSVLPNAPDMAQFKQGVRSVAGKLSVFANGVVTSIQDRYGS
UniProt P02647, whole entry, looked up: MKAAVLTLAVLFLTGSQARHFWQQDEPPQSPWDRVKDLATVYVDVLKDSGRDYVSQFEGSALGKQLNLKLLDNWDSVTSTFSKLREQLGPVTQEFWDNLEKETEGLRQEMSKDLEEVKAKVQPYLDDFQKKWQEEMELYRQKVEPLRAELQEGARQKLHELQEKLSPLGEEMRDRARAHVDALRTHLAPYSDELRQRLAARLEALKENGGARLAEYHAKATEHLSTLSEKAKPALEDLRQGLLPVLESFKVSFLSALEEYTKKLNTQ
UniProt Q0VD83: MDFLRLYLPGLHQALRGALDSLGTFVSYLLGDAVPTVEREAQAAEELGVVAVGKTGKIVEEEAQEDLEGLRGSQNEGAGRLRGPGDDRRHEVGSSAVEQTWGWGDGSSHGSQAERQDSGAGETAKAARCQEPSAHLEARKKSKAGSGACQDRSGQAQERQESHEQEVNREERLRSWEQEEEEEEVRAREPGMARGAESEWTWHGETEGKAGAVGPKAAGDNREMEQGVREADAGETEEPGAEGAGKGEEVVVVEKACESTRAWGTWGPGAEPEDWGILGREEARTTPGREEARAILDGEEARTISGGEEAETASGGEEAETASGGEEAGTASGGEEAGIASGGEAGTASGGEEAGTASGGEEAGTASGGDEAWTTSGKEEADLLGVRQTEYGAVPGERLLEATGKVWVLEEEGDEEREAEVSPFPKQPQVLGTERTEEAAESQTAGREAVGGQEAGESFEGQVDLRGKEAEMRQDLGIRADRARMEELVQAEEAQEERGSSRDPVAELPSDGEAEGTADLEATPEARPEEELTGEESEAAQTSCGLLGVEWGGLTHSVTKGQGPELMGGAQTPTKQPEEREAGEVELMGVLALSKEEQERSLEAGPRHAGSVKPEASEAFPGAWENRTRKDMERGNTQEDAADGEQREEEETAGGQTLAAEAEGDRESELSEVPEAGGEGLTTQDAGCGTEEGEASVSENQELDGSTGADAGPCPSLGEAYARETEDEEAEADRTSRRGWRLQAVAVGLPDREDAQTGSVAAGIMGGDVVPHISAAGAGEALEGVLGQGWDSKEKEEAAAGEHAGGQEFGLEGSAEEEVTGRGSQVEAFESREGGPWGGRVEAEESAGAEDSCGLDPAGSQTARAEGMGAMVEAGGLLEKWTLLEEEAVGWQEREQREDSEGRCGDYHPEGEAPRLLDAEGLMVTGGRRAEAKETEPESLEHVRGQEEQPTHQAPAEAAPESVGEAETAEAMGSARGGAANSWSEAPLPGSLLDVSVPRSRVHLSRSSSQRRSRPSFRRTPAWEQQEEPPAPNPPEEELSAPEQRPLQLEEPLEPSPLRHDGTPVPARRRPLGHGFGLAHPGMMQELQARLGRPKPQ
UniProt Q10567: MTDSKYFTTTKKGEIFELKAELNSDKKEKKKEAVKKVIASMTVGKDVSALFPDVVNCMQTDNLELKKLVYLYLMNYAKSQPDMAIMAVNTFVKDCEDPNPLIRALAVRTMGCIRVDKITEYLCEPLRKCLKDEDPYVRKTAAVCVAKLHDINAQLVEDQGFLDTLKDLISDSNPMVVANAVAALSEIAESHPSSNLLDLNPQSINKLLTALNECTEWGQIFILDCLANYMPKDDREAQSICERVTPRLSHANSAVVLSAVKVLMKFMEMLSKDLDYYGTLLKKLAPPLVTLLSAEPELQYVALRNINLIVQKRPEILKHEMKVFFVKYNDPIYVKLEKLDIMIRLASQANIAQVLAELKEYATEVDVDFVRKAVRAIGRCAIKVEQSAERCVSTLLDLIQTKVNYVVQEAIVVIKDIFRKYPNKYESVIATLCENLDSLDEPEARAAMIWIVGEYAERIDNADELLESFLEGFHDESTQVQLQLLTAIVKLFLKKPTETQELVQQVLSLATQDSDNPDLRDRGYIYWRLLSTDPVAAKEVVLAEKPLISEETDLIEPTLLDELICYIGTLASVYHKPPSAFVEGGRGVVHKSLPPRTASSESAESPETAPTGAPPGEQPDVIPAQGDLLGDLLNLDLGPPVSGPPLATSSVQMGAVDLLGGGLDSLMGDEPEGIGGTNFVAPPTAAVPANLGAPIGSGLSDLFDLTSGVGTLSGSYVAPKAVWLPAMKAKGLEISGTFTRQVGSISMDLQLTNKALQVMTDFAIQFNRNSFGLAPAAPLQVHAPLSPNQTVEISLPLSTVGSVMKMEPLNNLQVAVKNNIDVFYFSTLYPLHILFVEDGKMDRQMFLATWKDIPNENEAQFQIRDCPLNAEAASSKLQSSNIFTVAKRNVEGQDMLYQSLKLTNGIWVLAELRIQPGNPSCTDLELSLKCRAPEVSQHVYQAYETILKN
UniProt Q96GX9: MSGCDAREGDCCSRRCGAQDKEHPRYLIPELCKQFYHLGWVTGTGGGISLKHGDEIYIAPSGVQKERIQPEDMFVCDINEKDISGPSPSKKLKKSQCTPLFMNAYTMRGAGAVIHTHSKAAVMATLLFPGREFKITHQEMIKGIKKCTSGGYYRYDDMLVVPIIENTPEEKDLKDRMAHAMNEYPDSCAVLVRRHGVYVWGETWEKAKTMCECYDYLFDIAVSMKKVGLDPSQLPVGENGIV

compound: CON(C)C(=O)N1N=C(c2cc(F)ccc2F)S[C@@]1(CCCN)c1ccccc1 [filanesib]; assay: log2 fold change, soluble protein after heating vs DMSO (PISA); higher = thermal stabilisation; K562 cells, 10 uM, 30 min; active = over 0.2 and 3.5 SD of the protein, either way, in both replicates (recomputed)
Summary of the method: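 Quantification of soluble protein used TMTpro 16plex LC-MS/MS, with channel sums equalised. Samples were the supernatant after 21,000xg for 90 min of pooled aliquots from K562 cells (2×10^6 cells/mL) treated with 10 μM compound for 30 min, heated for 3 min over 48°C-58°C, and extracted in PBS with 0.5% NP-40 at 4°C. Values, from duplicates, describe thermal stability against control samples on a log2 fold-change scale.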

Target | log2 fold change
ANGPTL3 (UniProt Q9Y5C1) | inactive: 0.277
AP2B1 isoform 2 (UniProt P63010) | inactive: 0.022
ANTKMT (UniProt Q9BQD7) | inactive: -0.197
ANKMY2 (UniProt Q8IV38) | inactive: -0.029
AP4B1 (UniProt Q9Y6B7) | inactive: -0.165
AP2A1 (UniProt O95782) | inactive: 0.045
ANK1 isoform 14 (UniProt P16157) | inactive: 0.515
AQR (UniProt O60306) | inactive: 0.22
ARHGAP1 (UniProt Q07960) | inactive: 0.084
ANKRD13A (UniProt Q8IZ07) | inactive: 0.056
ANKRD49 (UniProt Q8WVL7) | inactive: -0.079
APOOL (UniProt Q6UXV4) | inactive: -0.031
ARID1A (UniProt O14497) | inactive: -0.106
ARFGEF2 (UniProt Q9Y6D5) | inactive: 0.012
ARHGEF12 (UniProt Q9NZN5) | inactive: 0.233
ARHGEF7 isoform 5 (UniProt Q14155) | inactive: 0.046
ARAP1 (UniProt Q96P48) | inactive: 0.078
ANXA3 (UniProt P12429) | inactive: -0.075
ARFGAP3 (UniProt Q9NP61) | inactive: 0.038
APTX (UniProt Q7Z2E3) | inactive: 0.013

A different layout for part of the listing above.
Target	log2 fold change
ANKMY2 (UniProt Q8IV38)	inactive: -0.029
AP4B1 (UniProt Q9Y6B7)	inactive: -0.165
AP2A1 (UniProt O95782)	inactive: 0.045

Next entries follow.

Target | log2 fold change
APOA1 (UniProt P02647) | inactive: 0.152
APMAP (UniProt Q9HDC9) | inactive: -0.025
APOBR (UniProt Q0VD83) | inactive: 0.01
APOBEC3G (UniProt Q9HC16) | inactive: 0.066
AP1B1 (UniProt Q10567) | inactive: -0.028
APIP (UniProt Q96GX9) | inactive: -0.046
APOBEC3D (UniProt Q96AK3) | inactive: 0.263
AP5M1 (UniProt Q9H0R1) | inactive: 0.004
ANXA5 (UniProt P08758) | inactive: -0.033
ARFGAP1 (UniProt Q8N6T3) | inactive: 0.034
APOO (UniProt Q9BUR5) | inactive: -0.099
ARHGAP6 (UniProt O43182) | inactive: 0.104
APLP2 (UniProt Q06481) | active: 0.219
APOM (UniProt O95445) | inactive: 0.022
AP1G1 isoform 2 (UniProt O43747) | inactive: -0.038
APOB (UniProt P04114) | active: -0.86
ANAPC5 (UniProt Q9UJX4) | inactive: 0.018
AP2M1 (UniProt C9JTK4) | inactive: 0.132
ARHGAP12 (UniProt Q8IWW6) | inactive: 0.028
